Test results reported in PubChem BioAssay AID1671190 (National Center for Advancing Translational Sciences (NCATS), 2021).
Among all 580,000 compounds or so, about 6,100 (1.1%) were called active. Inconclusive results, whose numbers are uncertain, are shown with a selection of clear calls. Calls follow the shape of the dose curve; as a rule, active = well fitted inhibition curve with a large enough effect; inconclusive = small, poorly fitted or top-dose-only effect, or another doubt; inactive = no such curve, though single readings can be large or run the other way. A potency beside an inconclusive call is a rough fit, not a confirmed value.

Sequences of proteins named here, by UniProt entry; tags and fusion partners are left off. A change or cut given only in a name is not applied to a line headed by its entry.
UniProt P18054: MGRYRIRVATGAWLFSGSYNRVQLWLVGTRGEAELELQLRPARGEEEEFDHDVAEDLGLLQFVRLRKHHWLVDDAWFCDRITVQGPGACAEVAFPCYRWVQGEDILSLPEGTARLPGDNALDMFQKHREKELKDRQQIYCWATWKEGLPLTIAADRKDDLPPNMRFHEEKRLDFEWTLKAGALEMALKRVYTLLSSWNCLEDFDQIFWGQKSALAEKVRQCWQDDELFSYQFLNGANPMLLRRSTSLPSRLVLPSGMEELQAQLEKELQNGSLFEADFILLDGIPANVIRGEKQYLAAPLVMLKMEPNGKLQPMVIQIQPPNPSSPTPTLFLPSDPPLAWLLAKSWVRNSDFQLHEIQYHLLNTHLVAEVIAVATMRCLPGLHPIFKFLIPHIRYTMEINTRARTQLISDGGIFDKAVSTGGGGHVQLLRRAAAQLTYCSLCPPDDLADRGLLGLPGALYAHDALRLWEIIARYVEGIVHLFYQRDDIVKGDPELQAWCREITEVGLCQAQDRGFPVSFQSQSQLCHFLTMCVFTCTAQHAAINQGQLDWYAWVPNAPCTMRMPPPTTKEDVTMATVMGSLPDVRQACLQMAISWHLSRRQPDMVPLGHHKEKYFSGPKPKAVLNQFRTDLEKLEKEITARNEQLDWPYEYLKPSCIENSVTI

What follows are compounds tested against Polyunsaturated fatty acid lipoxygenase ALOX12 (Homo sapiens) (UniProt P18054) (assay: Primary qHTS assay for inhibitors of human arachidonate 12S-lipoxygenase (ALOX12): Round 2). Settings: purified 12hLO, xylenol orange hydroperoxide absorbance; activity change, negative = inhibition: at 108 µM (top of the series) unless noted.
Procedure, shortened: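 Purified human 12hLO (150 nM final) in 25 mM Hepes, 0.01% Triton X-100, pH 7.0 was preincubated 15 min at room temperature with compound. Then 40 uM arachidonic acid was added, 30 min. Hydroperoxide was read by Fe-XO absorbance ratio 573/405 nm.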
% is scaled to controls: 0 for no effect and ±100 for the full control effect; potency is read from the fitted curve at half-maximal effect.

Row | SMILES | Potency | activity change, negative = inhibition
1 | O=C(N[C@H](CO)[C@H](O)c1ccc([N+](=O)[O-])cc1)C(Cl)Cl | inconclusive: 2.17 µM [inhibitor, partial curve] | –
2 | COc1ccc(NS(=O)(=O)c2ccc(C)c(NC(=O)C3CCCO3)c2)cc1 (configuration not stated) | inconclusive: 63.1 µM [inhibitor, partial curve, poor fit] | –
3 | COc1ccc(-c2nc(SC(CC(=O)NCc3ccco3)c3ccc(C)cc3)n[nH]2)cc1 (configuration not stated) | – | inactive: -21.9%
4 | COC(=O)c1ccccc1NS(=O)(=O)c1ccc(F)cc1 | inconclusive: 3.16 µM [inhibitor, full curve, poor fit] | –
5 | COc1ccc(-n2nnnc2CNC(=O)c2ccc(S(=O)(=O)N3CCOCC3)cc2)cc1 | inconclusive: 89.1 µM [inhibitor, partial curve, poor fit] | –
6 | Cn1cccc1C(=O)N1CCC2(CCN(C(=O)Nc3cccc(F)c3)CC2)CC1 | – | inactive: 1.22% [at 57.4 µM]
7 | COc1ccc(S(=O)(=O)N2CC[C@H]3NC(=O)N(c4ccc(C(C)C)cc4)C(=O)[C@H]32)cc1 | inconclusive: 70.8 µM [inhibitor, partial curve] | –
8 | COc1ccc(Nc2nnc(-c3ccc(C)c(S(=O)(=O)N4CCN(C)CC4)c3)c3ccccc23)cc1 | inconclusive: 0.355 µM [inhibitor, full curve] | –
9 | CCCCCCn1nc(C(=O)OCC(=O)NC2CCS(=O)(=O)C2)c2ccccc2c1=O (configuration not stated) | – | inactive: 5.6%
10 | CC(C)c1ccc(C2(C)NC(=O)N(CC(=O)NCC3COc4ccccc4O3)C2=O)cc1 (configuration not stated) | inconclusive: 100 µM [inhibitor, partial curve, poor fit] | –
11 | COc1ccc(C(CNC(=O)c2ccc(Br)s2)N2CCCC2)cc1 (configuration not stated) | inconclusive: 44.7 µM [inhibitor, partial curve, poor fit] | –
12 | CCOC(=O)c1csc(NC(=O)COc2ccc(Cl)cc2Cl)n1 | inconclusive: 15.8 µM [inhibitor, partial curve, poor fit] | –
13 | Cn1nccc1NC(=O)NC(=O)c1c(Cl)cccc1Cl | – | inactive: 244%
14 | CC1(C)O[C@@H]2[C@H](O1)[C@@H](O)C[C@H]2n1cnc2c(Cl)ncnc21 | inconclusive: 35.5 µM [inhibitor, single point] | –
15 | Cc1nc(C)c(C(=O)N(c2ccccc2F)C(C(=O)NCC2CCCO2)c2ccccc2)s1 (configuration not stated) | – | inactive: -5.7%
16 | Cc1ccc(/C=C/C(=O)O)cc1S(=O)(=O)Nc1ccccc1C(=O)O | inconclusive: 141 µM [inhibitor, partial curve, poor fit] | –
17 | COC(=O)[C@H](Cc1ccc(OC)cc1)NC(=O)[C@H]1CN(S(=O)(=O)c2ccccc2)CCN1C(=O)c1cccs1 | – | inactive: 1.65%
18 | Cc1cc(C)c2c(c1)C(=O)c1ccccc1-2 | – | inactive: 0.73%
19 | NC(=O)C1(N)CCOCC1 | inconclusive: 14.1 µM [inhibitor, partial curve, poor fit] | –
20 | CCCN1C(=O)C[C@H](S(=O)(=O)c2ccccc2)[C@H]1c1ccc(C#N)cc1 | inconclusive: 126 µM [inhibitor, single point] | –
21 | O=C(O)CNS(=O)(=O)c1ccc(Cl)s1 | inconclusive: 44.7 µM [inhibitor, full curve, poor fit] | –
22 | Cc1c(C(C)(C(=O)O)c2c(C)n(C)c3ccccc23)c2ccccc2n1C | – | inactive: 86.6%
23 | COC(=O)c1ccc(OC)c(CN2CCCN(Cc3ccc(C)cc3)S2(=O)=O)c1 | inconclusive: 158 µM [inhibitor, partial curve, poor fit] | –

Row | SMILES | Potency | activity change, negative = inhibition
25 | CCOC(=O)c1cc(-c2ccccn2)nc2c1c(=O)[nH]c(=O)n2C | – | inconclusive: -30.1% [inhibitor]
26 | CC(=O)Nc1ncc2c(n1)CC(c1ccc(C(C)(C)C)cc1)CC2=O (configuration not stated) | inconclusive: 63.1 µM [inhibitor, partial curve, poor fit] | –
27 | O=C(NCc1ccc(Cl)cc1Cl)C1CCCN(c2ncnc3nc[nH]c23)C1 (configuration not stated) | – | inactive: -1.79%
28 | Cn1cnc2c1c(=O)n(CCCSc1nnc(-c3ccccc3)o1)c(=O)n2C | – | inactive: 5.88%
29 | CCOc1ccc(NC(=O)CN2C(=O)NC(c3ccccc3OCC)C3=C2COC3=O)cc1 (configuration not stated) | – | inactive: 17.1%
30 | O=c1c2ccccc2ncn1-c1ccc(Cl)cc1Cl | inconclusive: 126 µM [inhibitor, single point] | –
31 | CCOc1cc(N2CCOCC2)c(OCC)cc1NC(=O)CN1CCCC1 | inconclusive: 10 µM [inhibitor, full curve] | –
32 | O=C(COC(=O)c1nc(Cl)ccc1Cl)Nc1ccc(Cl)cn1 | inconclusive: 100 µM [inhibitor, single point] | –
33 | COCCn1c(SCCOc2ccc(Cl)cc2)nnc1-c1ccccc1 | inconclusive: 50.1 µM [inhibitor, full curve, poor fit] | –
34 | CNC(=O)CSc1nc(-c2ccccc2)c(-c2ccccc2)o1 | – | inactive: 2.75%
35 | CCOc1cc(=O)n2c(c1C(=O)Nc1cccc(Cl)c1C)CCCC2 | – | inactive: 58.1%
36 | O=C(Nc1ccc2ncccc2c1)c1ccccc1 | inconclusive: 79.4 µM [inhibitor, partial curve, poor fit] | –
37 | CS/C(=N\S(=O)(=O)c1cccs1)NC(=O)CSc1nc2ccccc2s1 | inconclusive: 44.7 µM [inhibitor, partial curve, poor fit] | –
38 | CC(=O)c1ccccc1NC(=O)COC(=O)c1cc(C)oc1C | inconclusive: 3.16 µM [inhibitor, full curve, poor fit] | –
39 | CCNc1nc(C)nc2c1oc1ccccc12 | inconclusive: 44.7 µM [inhibitor, partial curve] | –
40 | Cc1cc(C(=O)N(C)CC2(C)CCOCC2)nn1C | – | inactive: 49%
41 | CC(C)OC(=O)CSc1nnc(-c2ccc(C(C)(C)C)cc2)n1N | inconclusive: 50.1 µM [inhibitor, partial curve, poor fit] | –
42 | COc1cc(OC)c(CN2CCc3c([nH]c4ccccc34)C2)cc1Br | inconclusive: 112 µM [inhibitor, single point] | –
43 | COC(=O)c1cn(CC(=O)NC(C2CC2)C2CC2)c2ccccc12 | – | inactive: -19.8%
44 | Cc1ccc2c(C(=O)O)cc(NC(=O)C(C)C)cc2n1 | inconclusive: 8.91 µM [inhibitor, partial curve] | –
45 | FC(F)(F)c1cccc(-c2n[nH]c3ccnc(-c4ccsc4)c23)c1 | inconclusive: 39.8 µM [inhibitor, partial curve, poor fit] | –
46 | COc1ccc(CCc2nc(C)ccc2O)cc1 | inconclusive: 44.7 µM [inhibitor, partial curve, poor fit] | –

Row | SMILES | Potency | activity change, negative = inhibition
47 | COc1ccc(-c2nc(CSCC(=O)NC3CCC(C)CC3)co2)cc1 (configuration not stated) | inconclusive: 79.4 µM [inhibitor, single point] | –
48 | Cc1nnsc1C(=O)NNc1c(Cl)cccc1Cl | inconclusive: 7.08 µM [inhibitor, partial curve, poor fit] | –
49 | Cc1cnnn1-c1ccc(C(=O)CCl)cc1 | inconclusive: 56.2 µM [inhibitor, partial curve, poor fit] | –
50 | CN(C)C(=O)CO | – | inactive: 2.45%
51 | N#C/C(=C/c1ccc(N2CCCCC2)o1)C(=O)Nc1ccc(Cl)cc1 | inconclusive: 44.7 µM [inhibitor, partial curve, poor fit] | –
52 | Cc1ccc(S(=O)(=O)Nc2ccc3c(c2)C(=O)N([C@H](C)CO)C[C@@H](C)[C@@H](CN(C)C(=O)Nc2cccc4ccccc24)O3)cc1 | inconclusive: 70.8 µM [inhibitor, partial curve, poor fit] | –
53 | COc1cc(/C=C2/C(=O)NN(c3ccc(F)cc3)C2=O)cc([N+](=O)[O-])c1O | inconclusive: 79.4 µM [inhibitor, partial curve, poor fit] | –
54 | Cc1cccc(N2CCN(C(=O)N3CCOCC3)CC2)c1C | inconclusive: 141 µM [inhibitor, partial curve, poor fit] | –
55 | CCc1ccc(N2CC(c3noc(-c4cc(Cl)ccc4F)n3)CC2=O)cc1 (configuration not stated) | – | inactive: 15.9%
56 | Cc1ccc(CNC(=O)c2ccc(N3CCOCC3)c(NC(=O)Nc3cc(F)ccc3F)c2)cc1 | inconclusive: 20 µM [inhibitor, full curve, poor fit] | –
57 | Cc1oc(-c2nc(C#N)c(NCCN(C)C)o2)cc1S(=O)(=O)N(C)c1ccccc1 | inconclusive: 8.91 µM [inhibitor, full curve, poor fit] | –
58 | O=C(NCC1CN(Cc2ccccc2)CCO1)C1CCC1 (configuration not stated) | – | inactive: 2.45%
59 | Cc1sc(NC(=O)C2CC2)c(C#N)c1C | inconclusive: 141 µM [inhibitor, partial curve, poor fit] | –
60 | CC(=O)N1CCN(c2ccccc2NC(=O)c2ccc(-c3ccccc3)cc2)CC1 | inconclusive: 0.355 µM [inhibitor, full curve, poor fit] | –
61 | CCCCn1c(=O)nc2n(-c3ccccc3)c3ccccc3cc-2c1=O | inconclusive: 8.91 µM [inhibitor, full curve] | –
62 | O=C(CCSCc1cccc(Cl)c1)NCCC1=CCCCC1 | – | inactive: -22.3%
63 | Cc1cccc(C)c1NC(=O)c1c(C)oc2c1C1=NCCN1C=N2 | – | inactive: -3.28%
64 | CCCOCc1cc(CN2CCN(c3cccc(Cl)c3)CC2)c(O)c2ncccc12 | – | inactive: -2.33%
65 | O=c1[nH]c2ccc(-c3csc(Nc4ccccc4)n3)cc2o1 | inconclusive: 6.31 µM [inhibitor, full curve, poor fit] | –
66 | CC(C)(C)OC(=O)C[C@@H]1C/C=C\C[C@@H](CC(=O)N(CCO)Cc2ccccc2)C(=O)NCCOC1=O | inconclusive: 39.8 µM [inhibitor, single point] | –
67 | Cc1ccc(/C=C(/C#N)C(=O)Nc2cccc3ncccc23)cc1 | inconclusive: 15.8 µM [inhibitor, full curve] | –

As entered above:
Under Potency, Cc1cnnn1-c1ccc(C(=O)CCl)cc1 reads inconclusive: 56.2 µM [inhibitor, partial curve, poor fit]
Under Potency, O=c1[nH]c2ccc(-c3csc(Nc4ccccc4)n3)cc2o1 reads inconclusive: 6.31 µM [inhibitor, full curve, poor fit]
Under Potency, Cc1nnsc1C(=O)NNc1c(Cl)cccc1Cl reads inconclusive: 7.08 µM [inhibitor, partial curve, poor fit]
Under activity change, negative = inhibition, O=C(NCC1CN(Cc2ccccc2)CCO1)C1CCC1 (configuration not stated) reads inactive: 2.45%

2 records drawn at random from the list so far:
Row | SMILES | Potency | activity change, negative = inhibition
66 | CC(C)(C)OC(=O)C[C@@H]1C/C=C\C[C@@H](CC(=O)N(CCO)Cc2ccccc2)C(=O)NCCOC1=O | inconclusive: 39.8 µM [inhibitor, single point] | –
55 | CCc1ccc(N2CC(c3noc(-c4cc(Cl)ccc4F)n3)CC2=O)cc1 (configuration not stated) | – | inactive: 15.9%
